Source: PubChem BioAssay AID1487 (National Center for Advancing Translational Sciences (NCATS), 2009)
Some of the results follow. Further columns of the screen follow, without active or inactive calls. Compounds called inactive in the main read-out are mostly missing here. The note in brackets gives the kind of curve behind each potency; many fits are weak.

Test: qHTS Assay for Modulators of Lamin A Splicing
Conditions: HeLa LMNA splicing GFP/RFP minigene ratio, 48 h
Procedure, shortened: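 S3 HeLa cells stably expressing lamin A-EGFP splicing minigene plus DsRed2, 600 cells/well, 48 h compound exposure at 37C. Laser-scanning cytometry; analysed as GFP (500-530 nm)/RFP (575-640 nm) total intensity ratio; 0.5% DMSO vehicle.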

[1] = measured here: RFP viability control channel
[2] = measured here: GFP splicing reporter channel

Row | Compound | AC50 [1] | AC50 [2]
1 | COc1cccc(-n2c(SCC(=O)Nc3c(C)cc(C)cc3C)nc3c([nH]c4ccccc43)c2=O)c1 | 35.5 µM [falling, single point] | –
2 | Cc1ccc(C(c2nnnn2CS(=O)(=O)c2ccc(C)cc2)N2CCCC2)cc1 (stereo unspecified) | – | 1.26 µM [falling, full curve, poor fit]
3 | CC[N+](CC)(CC)CC[C@](O)(c1ccccc1)C1CCCCC1 | 8.91 µM [falling, single point] | 5.01 µM [rising, partial curve, poor fit]
4 | COc1cc(NC(=O)Nc2ccc(C)cc2)cc([N+](=O)[O-])c1 | 17.8 µM [rising, partial curve] | –
5 | CN(C)c1ccc(/C=N/NC(=O)C(=O)/C=C2\NC3(CCCC3)Cc3ccccc32)cc1 | 20 µM [rising, partial curve] | 7.08 µM [rising, partial curve]
6 | O=C(C(Sc1ccccc1)c1ccccc1)N1CCN(c2ccccc2F)CC1 (stereo unspecified) | 35.5 µM [rising, single point] | 35.5 µM [rising, single point]
7 | CCN(CC)S(=O)(=O)c1cc(C(=O)Nc2ccccc2[N+](=O)[O-])ccc1Cl | 35.5 µM [falling, single point] | 25.1 µM [falling, single point]
8 | COc1ccc2[nH]cc(CCNc3nc(-c4ccc(N(C)C)cc4)nc4ccccc34)c2c1 | 10 µM [falling, partial curve] | 11.2 µM [falling, partial curve]
9 | CCN(CC)CC(=O)Nc1sc2c(c1C(=O)c1ccccc1C)CCC2 | – | 12.6 µM [rising, single point]
10 | CN(C)c1ccc(CNc2ccc3c(c2)ncn3C)cc1 | 35.5 µM [rising, single point] | –
11 | CCn1nc(C)c(CNC(=O)CC2C(=O)NCCN2Cc2ccc(C)o2)c1C (stereo unspecified) | – | 2.82 µM [falling, partial curve, poor fit]
12 | C=CCC1S/C(=N/N=C/c2cccs2)NC1=O (stereo unspecified) | – | 0.891 µM [falling, full curve, poor fit]
13 | COc1ccccc1CNc1cc(-c2ccoc2)ncn1 | 22.4 µM [falling, partial curve] | 17.8 µM [falling, partial curve]
14 | CCCC(=O)Nc1nc2ccc(NC(=O)c3ccc(Br)o3)cc2s1 | 25.1 µM [rising, single point] | –
15 | CC(C)(C)NC(=O)Nc1ccc(Cn2cc(C(F)(F)F)ccc2=O)cc1 | 0.1 µM [rising, full curve, poor fit] | 0.00355 µM [rising, full curve, poor fit]
16 | CC(C)Nc1nnc(SCC(=O)NCc2ccc3c(c2)OCO3)s1 | – | 0.0112 µM [falling, full curve, poor fit]
17 | Cc1nonc1OCCNCc1c(C(=O)N(C)C)nc2ccc(Cl)cn12 | 0.891 µM [falling, full curve, poor fit] | 2.82 µM [falling, full curve, poor fit]
18 | CCOC(=O)c1sc(C)c2c1NC(c1ccc(Cl)cc1)NC2=O (stereo unspecified) | – | 3.55 µM [rising, single point]
19 | O=C(Cc1ccccc1)Nc1cc(Cl)ccc1Sc1ccccc1 | – | 22.4 µM [rising, single point]

Rewritten tab-delimited: entries from further up
Row	Compound	AC50 [1]	AC50 [2]
12	C=CCC1S/C(=N/N=C/c2cccs2)NC1=O (stereo unspecified)	–	0.891 µM [falling, full curve, poor fit]
13	COc1ccccc1CNc1cc(-c2ccoc2)ncn1	22.4 µM [falling, partial curve]	17.8 µM [falling, partial curve]

(further entries)

Row | Compound | AC50 [1] | AC50 [2]
20 | CN(C)S(=O)(=O)c1ccc(NC(=O)N2CCOCC2)cc1 | 3.55 µM [rising, partial curve] | –
21 | COc1cccc(CSc2nc3ccccc3cc2C=O)c1 | 25.1 µM [rising, single point] | 35.5 µM [rising, single point]
22 | Cc1cccc(OCCCC(=O)Nc2nccs2)c1 | 22.4 µM [rising, partial curve] | –
23 | Cc1ccc(C)c(N2CCN(C(=O)c3cc4c(=O)n(Cc5ccccc5)ccc4nc3C)CC2)c1 | – | 0.00447 µM [falling, full curve, poor fit]
24 | CC(C)(C)NCCCOc1ccc(Cl)cc1C(C)(C)C | 5.62 µM [rising, single point] | –
25 | Cc1cccc(NS(=O)(=O)c2ccc3[nH]c4c(c3c2)CCCCCC4)c1 | 15.8 µM [falling, partial curve] | 15.8 µM [falling, partial curve]
26 | Cc1cc(F)ccc1S(=O)(=O)Nc1ccccc1C(=O)Nc1ncn[nH]1 | – | 15.8 µM [rising, single point]
27 | CCOC(=O)N1CCN(C(=O)C2CCCN(Cc3nc(-c4ccc(Cl)cc4)oc3C)C2)CC1 (stereo unspecified) | 12.6 µM [rising, partial curve] | –
28 | O=C(CN1CCCC(O)C1)N1c2ccccc2Sc2ccc(C(F)(F)F)cc21 (stereo unspecified) | 31.6 µM [rising, single point] | –
29 | CCCCOc1ccc(C(=O)Nc2ccc3c(c2)CCCN3C(=O)c2cccs2)cc1 | – | 2.82 µM [falling, full curve]
30 | COc1ccc(-c2cc(C(F)F)n3ncc(C(=O)n4ccnc4C)c3n2)cc1 | – | 20 µM [falling, single point]
31 | COCCCNC(=O)c1cn(Cc2c(F)cccc2Cl)nn1 | 35.5 µM [falling, single point] | 35.5 µM [falling, single point]
32 | CC(C)(C)c1ccc(C(=O)CCCSC2=C(C#N)C(c3ccco3)C3=C(CCCC3=O)N2)cc1 (stereo unspecified) | 15.8 µM [rising, partial curve] | 12.6 µM [rising, partial curve, poor fit]
33 | CC(=O)c1ccc(NC(=O)CN(C)CC(=O)Nc2cccc(F)c2)cc1 | 2.24 µM [falling, full curve, poor fit] | –
34 | CCOC(=O)C1CCN(C(=O)c2ccccc2NC(=O)c2nsc3ccccc23)CC1 | – | 2.24 µM [rising, partial curve]
35 | CCc1ccc(Nc2nnc(SCc3cc(=O)n4ccsc4n3)s2)cc1 | 17.8 µM [rising, single point] | –
36 | Cc1ccnc(NC(=O)c2ccccc2NC(=O)C(C)(C)C)c1 | 20 µM [rising, single point] | –
37 | CCOc1ccc2c(c1)C(=NNC(=O)c1ccncc1)c1cc(OCC)ccc1-2 | 3.16 µM [rising, full curve] | –
38 | O=S(=O)(c1ccccc1)c1cnn(-c2ccccc2)c1-c1ccc(F)cc1 | 35.5 µM [rising, single point] | 35.5 µM [rising, single point]

Grouped by structure: those above with an aryl thioether with sulfur outside any ring
Row | Compound | AC50 [1] | AC50 [2]
1 | COc1cccc(-n2c(SCC(=O)Nc3c(C)cc(C)cc3C)nc3c([nH]c4ccccc43)c2=O)c1 | 35.5 µM [falling, single point] | –
6 | O=C(C(Sc1ccccc1)c1ccccc1)N1CCN(c2ccccc2F)CC1 (stereo unspecified) | 35.5 µM [rising, single point] | 35.5 µM [rising, single point]
16 | CC(C)Nc1nnc(SCC(=O)NCc2ccc3c(c2)OCO3)s1 | – | 0.0112 µM [falling, full curve, poor fit]
19 | O=C(Cc1ccccc1)Nc1cc(Cl)ccc1Sc1ccccc1 | – | 22.4 µM [rising, single point]
21 | COc1cccc(CSc2nc3ccccc3cc2C=O)c1 | 25.1 µM [rising, single point] | 35.5 µM [rising, single point]
35 | CCc1ccc(Nc2nnc(SCc3cc(=O)n4ccsc4n3)s2)cc1 | 17.8 µM [rising, single point] | –

Next results

Row | Compound | AC50 [1] | AC50 [2]
39 | O=c1c2[nH]c3ccccc3c2ncn1C1CCCCC1 | – | 5.62 µM [rising, full curve, poor fit]
40 | COc1ccc(OCC(=O)Nc2nc3ccc(NC(C)=O)cc3s2)cc1 | 11.2 µM [falling, partial curve] | 12.6 µM [falling, partial curve]
41 | COc1ccc(C(=O)N[C@H](C(=O)N2CCN(c3ccccc3F)CC2)C(C)C)cc1 | 22.4 µM [rising, single point] | –
42 | CCN(CC)CCNC(=O)c1ccc(NC(=O)/C=C/c2cc(OC)c(OC)c(OC)c2)cc1 | – | 5.01 µM [falling, full curve, poor fit]
43 | Nc1cc(N)nc(SCCOc2ccccc2)n1 | 12.6 µM [rising, single point] | –
44 | CCCCn1c(NC(=O)c2ccccc2)nc2ccccc21 | 22.4 µM [rising, single point] | 35.5 µM [rising, single point]
45 | CCN(CC(O)CON=C1c2ccccc2-c2ccccc21)S(=O)(=O)c1ccc(C)cc1 (stereo unspecified) | 14.1 µM [rising, partial curve] | –
46 | COC(=O)c1sccc1NC(=S)Nc1ccccc1 | 0.0891 µM [rising, full curve, poor fit] | –
47 | COc1ccc(C)c2sc(NC(=O)c3ccc(S(=O)(=O)N(C)C)cc3)nc12 | 3.16 µM [rising, partial curve] | –
48 | O=C(N/N=C/c1c(Cl)[nH]c2ccccc12)c1sc2ccccc2c1Cl | – | 35.5 µM [falling, single point]
49 | CN(C)c1ccc(-c2nnn(CC(=O)Nc3ccccc3N3CCOCC3)n2)cc1 | 17.8 µM [rising, partial curve] | 12.6 µM [rising, partial curve]
50 | Cc1noc(C)c1S(=O)(=O)N1CCCC(C(=O)NCCc2ccc(Cl)cc2)C1 (stereo unspecified) | 20 µM [rising, single point] | –
51 | CC(C)CN(CC(C)C)C(=O)c1cccc(S(=O)(=O)N2CCc3ccccc32)c1 | – | 25.1 µM [falling, partial curve]
52 | Cc1ccnc(NC(=O)Nc2ccc3c(c2)N(C)C(=O)CS3)c1 | 17.8 µM [falling, partial curve] | 22.4 µM [falling, partial curve, poor fit]
53 | COc1ccc(CN2C(=O)c3ccccc3C2C(=O)NC2CCCC(C)C2C)c(OC)c1 (stereo unspecified) | 0.00631 µM [falling, partial curve, poor fit] | –
54 | COc1ccc(Oc2cc(C)c3ccccc3n2)cc1 | 12.6 µM [rising, single point] | 15.8 µM [rising, single point]
55 | Cc1cc(C)c(C)c(N=Nc2nc3ccccc3n2C)c1C | 22.4 µM [rising, single point] | 35.5 µM [rising, single point]
56 | Cc1ccc(CNC(=O)c2ccc(N3CCCC3)c(NC(=O)Nc3ccc(C)cc3)c2)cc1 | 25.1 µM [falling, partial curve, poor fit] | 14.1 µM [falling, single point]
